# PubChem BioAssay AID1439 (NMMLSC, 2008)
# Sequences of proteins named here, by UniProt entry; tags and fusion partners are left off.
# UniProt P09471, whole entry, looked up: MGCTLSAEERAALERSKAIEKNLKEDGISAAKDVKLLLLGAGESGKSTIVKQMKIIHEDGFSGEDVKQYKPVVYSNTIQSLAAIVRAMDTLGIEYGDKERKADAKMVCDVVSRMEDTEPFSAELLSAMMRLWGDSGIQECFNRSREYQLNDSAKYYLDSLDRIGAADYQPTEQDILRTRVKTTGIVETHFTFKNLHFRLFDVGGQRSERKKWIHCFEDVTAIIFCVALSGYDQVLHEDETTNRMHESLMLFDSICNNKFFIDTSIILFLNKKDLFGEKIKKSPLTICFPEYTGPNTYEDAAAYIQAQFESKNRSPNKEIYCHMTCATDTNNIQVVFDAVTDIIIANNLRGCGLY
# Hit rate of the full screen: of about 220,000 compounds, about 770 (0.35%) were called active. Inconclusive results, whose numbers are uncertain, are shown with a selection of clear calls. Cut-off read from the data, not from the text of the source: active = binding response below about 49% or above about 150%; inconclusive = no clear call, values can overlap the other calls; inactive = in between.
# Molecular target: Guanine nucleotide-binding protein G(o) subunit alpha (Homo sapiens) (UniProt P09471)
# Assay: RGS7-Galphao binding modulators, primary screen, biochemical, multiplexed bead flow cytometry (AID 1439);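 note: fluorescent Galphao held in activated GDP-AlF4 state binding bead-coupled RGS7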
# Conditions: at 10 µM, actives lie on both sides
row,SMILES,binding response (% of control)
1,COc1ccc2cnn(-c3ccc(OC(F)(F)F)cc3)c(=O)c2c1OC,inconclusive: 124%
2,CCn1c(SCC(=O)Nc2ccc(C(C)=O)cc2)nc2nc3c(cc2c1=O)COC(C)(C)C3,inconclusive: 111%
3,O=C(CSc1ncccn1)Nc1ccc2c(c1)CCC2,inconclusive: -18.6%
4,CCOc1ccc(C(=O)NCC(=O)OCC(=O)Nc2cccc(S(=O)(=O)N3CCCC3)c2)cc1,inconclusive: 88.3%
5,Cc1ccccc1N=C(NO)c1nonc1N,inactive: 108%
6,O=S1(=O)N=C(N/N=C/c2ccc(Br)o2)c2ccccc21,inconclusive: 99.6%
7,O=C1/C(=C/c2ccncc2)Oc2cc(OS(=O)(=O)c3ccccc3)ccc21,inconclusive: 25.3%
8,COc1ccc(NC(=O)NCCCN2CCC(Cc3ccccc3)CC2)cc1,inconclusive: 90.2%
9,NS(=O)(=O)c1cccc(NC(=O)COC(=O)CN2C(=O)C3CC=CCC3C2=O)c1 (stereo unspecified),inactive: 109%
10,Cc1ccc(C(C)C)c(OCC(=O)NN=C(CCl)CCl)c1,inconclusive: 93.5%
11,O=C(CCc1nc2ccccc2c(=O)[nH]1)N1CCN(c2ccc(F)cc2)CC1,inactive: 99.5%
12,COC(=O)[C@H](CC(C)C)NC(=O)Nc1ccc(F)cc1,inconclusive: 101%
13,C/C(=N\NC(=O)c1c[nH]c2ccccc12)c1ccc2c(c1)OCO2,inconclusive: 89.9%
14,COc1ccc(-n2ccnc2SCC(=O)NO)cc1,inconclusive: 90.6%
15,COc1ccccc1-c1n[nH]c(=S)n1Cc1ccco1,inconclusive: 91.4%
16,CNc1nc(Cl)c(SC)c(NC2CCCCC2)n1,inconclusive: 90.7%
17,Cc1nonc1CN(C)C(=O)CC1C(=O)NCCN1Cc1ccccc1C(F)(F)F (stereo unspecified),inactive: 91.4%
18,NCc1nc(-c2ccc(Cl)cc2)no1,inconclusive: 82.9%
19,CN(/N=C/Cc1nnnn1-c1ccc(Cl)cc1)c1ccccc1,inconclusive: 112%
20,Cc1ccccc1NC(=O)Cn1nnc(-c2ccc(CN3CCC(C)CC3)cc2)n1,inconclusive: 125%
21,COc1ccc(C)cc1NC(=O)Nc1ccccc1,inactive: 104%
22,COc1ccc(C(=O)COC(=O)CCc2ccccc2)cc1,inconclusive: 116%
23,N#CNC(=Nc1ccc(Cl)cc1)Oc1ccccc1,inconclusive: 116%

row,SMILES,binding response (% of control)
1,CCOC(=O)C1(CCCc2ccccc2)CCN(Cc2ccn[nH]2)CC1,inactive: 97.8%
2,COc1ccc(/C=N/n2cnnc2)cc1Br,inconclusive: 106%
3,COc1ccc(-c2cc3nc(C)n(N)c(=O)c3s2)cc1,inconclusive: 62.8%
4,O=C(CSCC(=O)N1CCOCC1)Nc1nc(-c2ccccc2)cs1,inconclusive: 97.7%
5,Cn1c2c(c(=O)n(C)c1=O)C(c1ccccc1Cl)C(C#N)=C(N)O2 (stereo unspecified),inconclusive: 99.9%
6,CC(=O)Oc1ccc(/C=N/NC(=S)Nc2ccccc2)cc1,inactive: 101%
7,COc1cc(/C=N/NS(=O)(=O)c2ccc(C)c([N+](=O)[O-])c2)ccc1O,inconclusive: 104%
8,O=C1N(C2CCCC2)C[C@@H]2C[C@@H](c3cccn3-c3nccs3)N3CCC[C@@]123,inactive: 96.6%
9,C[C@@]12CCC=C[C@H]1[C@H](c1ccc3ccccc3c1)N(Cc1ccccc1)C2=O,inconclusive: 122%
10,CCCOc1ncnc2c1[nH]c1ccc(C)cc12,inconclusive: 75.5%
11,CCOC(=O)c1cc(C(=O)NN)c(=O)[nH]c1C,inconclusive: 100%
12,COc1ccccc1CN1CCNC(=O)C1CC(=O)NCc1cn(C)nc1C (stereo unspecified),inactive: 92%
13,CC(C)CNC1CS(=O)(=O)CC1O (stereo unspecified),inconclusive: 107%
14,CN(C(=O)c1ccc(C#N)cc1)c1nnc(-c2cnccn2)s1,inconclusive: 113%
15,COCCN(C)C(=O)CC1C(=O)NCCN1CC(c1ccccc1)c1ccccc1 (stereo unspecified),inactive: 94.7%
16,CN(C)c1cc(Nc2ccc(O)cc2)c([N+](=O)[O-])c2nonc12,inconclusive: 64.7%
17,c1ccc(-c2cc3c(N4CCN(c5ccccc5)CC4)ncnc3s2)cc1,inconclusive: 102%
18,CC1(C)CN=c2s/c(=C\c3ccc(Cl)cc3)c(=O)n2C1,inactive: 101%
19,Cc1nc2ccccc2c(=O)n1NC(=O)c1cccnc1Cl,inactive: 96.2%
20,CC(=O)Nc1ccc(NC(=O)C(C)OC(=O)c2ccccc2NS(=O)(=O)c2cccs2)cc1 (stereo unspecified),inconclusive: -53%
21,CC(C)(C)OC(=O)N1CCC2(CC1)C(C#N)=C(N)OC1=C2C(=O)CCC1,inactive: 101%
22,OC1CCN(c2cc(-c3ccccc3)nc3cc(-c4ccc(F)cc4)nn23)CC1,inconclusive: 105%
23,Cn1c(SCC(=O)NNC(=O)Nc2ccc(Cl)cc2)nnc1-c1ccccc1,inconclusive: 94.3%

# A section taken from the entries so far, as a working copy:
row,SMILES,binding response (% of control)
11,O=C(CCc1nc2ccccc2c(=O)[nH]1)N1CCN(c2ccc(F)cc2)CC1,inactive: 99.5%
12,COC(=O)[C@H](CC(C)C)NC(=O)Nc1ccc(F)cc1,inconclusive: 101%
